Test results published in patent US20140235701.
For some assays here: No signal at the amounts used counts as a negative. For some assays here: Weaker means in comparison with the reference protein, sequence or condition of that experiment. For some assays here: Protein sequences can lack the tags named with them.

By UniProt entry, the sequences of proteins in these tests, tags left out. Residues count along the entry.
UniProt P01138, 122-241: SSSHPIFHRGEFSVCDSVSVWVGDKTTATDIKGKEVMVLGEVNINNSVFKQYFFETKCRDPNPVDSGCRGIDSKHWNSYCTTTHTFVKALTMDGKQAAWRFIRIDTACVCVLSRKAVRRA
UniProt P23560, 129-247: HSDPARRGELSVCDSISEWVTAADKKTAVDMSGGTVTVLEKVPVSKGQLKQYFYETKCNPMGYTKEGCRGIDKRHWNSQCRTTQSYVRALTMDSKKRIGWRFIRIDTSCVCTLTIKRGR
UniProt P34130, 81-210: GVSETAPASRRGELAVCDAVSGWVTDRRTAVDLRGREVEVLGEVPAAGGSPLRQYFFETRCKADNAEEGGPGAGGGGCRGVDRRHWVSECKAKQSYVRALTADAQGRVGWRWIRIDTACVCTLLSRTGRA

What was measured:
[1] = target: NGF (nerve growth factor) (Homo sapiens) (UniProt P01138); assay: SPR; conditions: 2'-F C and U, 2'-OH G, 2'-H (deoxy) A, purified recombinant protein, protein details: R&D Systems
BDNF (Homo sapiens) = BDNF (Homo sapiens) (UniProt P23560); assay: activity in cells; conditions: purified recombinant protein, protein details: R&D Systems
NT-4 (neurotrophin-4) [2] = target: NT-4 (neurotrophin-4) (UniProt P34130); assay: activity in cells; conditions: TF-1, purified recombinant protein, protein details: R&D Systems
NT-4 (neurotrophin-4) [3] = target: NT-4 (neurotrophin-4) (UniProt P34130); assay: SPR; conditions: 2'-OH G, purified recombinant protein, protein details: R&D Systems
NT-3 (neurotrophin-3) [4] = target: T1, NT-3 (neurotrophin-3) (UniProt P20783); assay: activity in cells; conditions: other C/U 2'-F, G 2'-OH, dA, 5',3' idT, TF-1, purified recombinant protein, protein details: R&D Systems
T1 sequence (looked up, limits assumed): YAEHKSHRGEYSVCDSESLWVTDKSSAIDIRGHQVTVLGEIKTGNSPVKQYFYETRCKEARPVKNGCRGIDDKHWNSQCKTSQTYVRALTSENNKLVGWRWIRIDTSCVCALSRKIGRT

NT-3 (neurotrophin-3) [5] = target: T1, NT-3 (neurotrophin-3); assay: SPR; conditions: 2'-F C and U; 2'-OH G; 2'-H (deoxy) A; scarcely bound to NT-3; purified recombinant protein; protein details: R&D Systems
[6] = markedly decreased vs SEQ 11, variant of SEQ ID NO: 11
[7] = markedly decreased vs SEQ 13, no remarkable neurite inhibition at 10 nM, variant of SEQ ID NO: 13
[8] = markedly decreased vs SEQ 13, variant of SEQ ID NO: 13

## GGGCACAUCCUGCUGCUAGUUUCCGUCUCGUGGCUGUUAUGUGC [SEQ ID NO: 125]
[1]; [6]
  binding result: binds more weakly

## GGGCACAUCCUGCUGCGUGUUUCCGUCCCGUGGCUGUUAUGUGC [SEQ ID NO: 126]
[1]; [6]
  binding result: binds more weakly

## GGGUCCUGGAUAAGAGUUUCCGUCUCGUAUCCTGUUACCC [SEQ ID NO: 158]
BDNF (Homo sapiens); as 82(1) except dT33, TF-1, variant of SEQ ID NO: 82(1)
  IC50: > 1000 nM

## GGGUCCUGGAUAAGAGUUUCCGUCUCGUAUCCUGUUACCC [SEQ ID NO: 82(15)]
BDNF (Homo sapiens); as 82(1) except 2'-OMe U35, TF-1, variant of SEQ ID NO: 82(1)
  IC50: > 1000 nM

## GGGUCCUGGAUAAGAGUUUCCGUCUCGUAUCCUGUUACCC [SEQ ID NO: 82(21)]
NT-4 (neurotrophin-4) [2]; as 82(1) except 2'-OMe U4,C6,U11,C21,U23,U28,U30,C32,U35,C38-40, variant of SEQ ID NO: 82(1)
  IC50: > 30 nM
BDNF (Homo sapiens); as 82(1) except 2'-OMe U4,C6,U11,C21,U23,U28,U30,C32,U35,C38-40, TF-1, variant of SEQ ID NO: 82(1)
  IC50: > 1000 nM

## GGGCACAUCCUGCGCGUAGUUUCCGUCUCCGUGCUGUUAUGUGC [SEQ ID NO: 121]
[1]; [6]
  binding result: binds more weakly

## GGGUCCUGUUCAAGAGUUUCCGUCUCGUGAACUGUUACCC [SEQ ID NO: 116]
NT-4 (neurotrophin-4) [3]; 2'-F C/U, dA, scarcely bound
  binding result: no binding

## GGGUCCUGGAUAAGAGUUUCCGUCUCGUAUCCUGUUACCC [SEQ ID NO: 82(22)]
NT-4 (neurotrophin-4) [2]; as 82(1) except 2'-OMe U4,C6,U11,C21,U23,C26,U28,U30,C32,U35,C38-40, variant of SEQ ID NO: 82(1)
  IC50: > 30 nM
BDNF (Homo sapiens); as 82(1) except 2'-OMe U4,C6,U11,C21,U23,C26,U28,U30,C32,U35,C38-40, TF-1, variant of SEQ ID NO: 82(1)
  IC50: > 1000 nM

## GGGCACAUCCUGUGCGUAGUUUCCGUCUCCGUGCUGUUAUGUGC [SEQ ID NO: 123]
[1]; [6]
  binding result: binds more weakly

## GGGUCCUGGAUAAGAGUUUCCGUCUCGUAUCCUGUUACCC [SEQ ID NO: 82(24)]
NT-4 (neurotrophin-4) [2]; as 82(1) except 2'-OMe U4,C6,U11,C21,U23,U28,U30,C31,C32,U35,C38-40, variant of SEQ ID NO: 82(1)
  IC50: > 30 nM
BDNF (Homo sapiens); as 82(1) except 2'-OMe U4,C6,U11,C21,U23,U28,U30,C31,C32,U35,C38-40, TF-1, variant of SEQ ID NO: 82(1)
  IC50: > 1000 nM

## GGGUCCUGCUCAAGAGUUUCCGUCUCGUGGGCUGUUACCC [SEQ ID NO: 87(1)]
NT-3 (neurotrophin-3) [4]; 2'-OMe G1-3,C38-40, variant of SEQ ID NO: 87
  IC50: > 10 nM

## GGGUCCUGGAUAAGAGUUUCCGUCUCGUAUCCUGUUACCC [SEQ ID NO: 82(25)]
BDNF (Homo sapiens); 2'-F C5,U7,U17,U18,U19,C20,C24,U25,U33,U36, 2'-OH G8,G34, 2'-H A, 2'-OMe all other, idT 5' and 3', TF-1 TrkB/p75 cells, variant of SEQ ID NO: …
  IC50: > 1000 nM

## GGGUCCUGUCUAAGAGUUUCCGUCUCGUAGACUGUUACCC [SEQ ID NO: 111]
NT-4 (neurotrophin-4) [3]; 2'-F C and U, 2'-H (deoxy) A, scarcely bound to NT-4
  binding result: binds more weakly
NT-3 (neurotrophin-3) [5]
  binding result: binds more weakly

## GGGGUCCUCUGCGUAGUUUCCGUCUCCGUGGUGUUACCCC [SEQ ID NO: 127]
[1]; [7]
  binding result: binds more weakly

## GGGCACAUCCUGCUGCGUAGUUUCCGUCUCCGUGGCUGUAUGUGC [SEQ ID NO: 134]
[1]; [6]
  binding result: binds more weakly

## GGGGUCCGCUGCGUAGUUUCCGUCUCCGUGGCUGUUACCCC [SEQ ID NO: 136]
[1]; [8]
  binding result: binds more weakly

## GGGCACAUCCUGCUGCGUAGUUUCCUCUCCGUGGCUGUUAUGUGC [SEQ ID NO: 132]
[1]; [6]
  binding result: binds more weakly

## GGGUCCUGGAUAAGAGUUUCCGUCUCGUAUCCUGUUACCC [SEQ ID NO: 82(23)]
NT-4 (neurotrophin-4) [2]; as 82(1) except 2'-OMe U4,C6,U11,C21,U23,C26,U30,C31,C32,U35,C38-40, variant of SEQ ID NO: 82(1)
  IC50: > 30 nM
BDNF (Homo sapiens); as 82(1) except 2'-OMe U4,C6,U11,C21,U23,C26,U30,C31,C32,U35,C38-40, TF-1, variant of SEQ ID NO: 82(1)
  IC50: > 1000 nM

## GGGGUCCGCUGCGUAGUUUCCGUCUCCGUGGCUGUACCCC [SEQ ID NO: 141]
[1]; [7]
  binding result: binds more weakly

## GGGUCCUGGAUAAGAGUUUCCGUCUCGUAUCCUGUUACCC [SEQ ID NO: 82(16)]
BDNF (Homo sapiens); 2'-F C and U except C38, 2'-OMe G1-3,G9,G14,G16,G22,G27,C38, 2'-OH G8,G34, 2'-H A, idT 5' and 3', TF-1 TrkB/p75 cells, variant of SEQ ID NO: 82
  IC50: > 1000 nM

## GGGUCCUGUUCAAGAGUUUCCGUCUCGUGAACUGUUACCC [SEQ ID NO: 88(1)]
NT-3 (neurotrophin-3) [4]; 2'-OMe C38-40, variant of SEQ ID NO: 88
  IC50: > 10 nM

## GGGGUCUGCUGCGUAGUUUCCGUCUCCGUGGCUUUACCCC [SEQ ID NO: 138]
[1]; [8]
  binding result: binds more weakly

## GGGUCCUGGAUAAGAGUUUCCGUCUCGUAUCCUGUUACCC [SEQ ID NO: 82(26)]
NT-4 (neurotrophin-4) [2]; as 82(25) except 2'-OMe C20, variant of SEQ ID NO: 82(25)
  IC50: > 30 nM
BDNF (Homo sapiens); as 82(25) except 2'-OMe C20, TF-1, variant of SEQ ID NO: 82(25)
  IC50: > 1000 nM
